Among the data in patent US20250145701A1 are binding values, retold here.

By UniProt entry, the sequences of proteins in these tests, tags left out. Where a name states a change or a piece, a line headed by the entry shows the natural chain unless it says otherwise. Chains listed by the source or under a name are the forms on record and can include a tag or linker.
human VEGF-A (Example 1) (P15692, form named): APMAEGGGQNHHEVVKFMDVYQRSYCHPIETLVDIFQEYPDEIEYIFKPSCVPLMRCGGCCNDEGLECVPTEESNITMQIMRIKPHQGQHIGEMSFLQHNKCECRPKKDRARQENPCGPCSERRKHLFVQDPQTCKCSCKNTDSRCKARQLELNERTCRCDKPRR

These are yes or no findings as the source states them, for the method shown. Some entries that bind do so weakly or less than the wild type. Sequences can lack the tags named with a protein.

Assay [1] has as its target human VEGF-A (Example 1) (human) (UniProt P15692). In words: ELISA, VHH-Fc expression supernatant. In general terms: In an ELISA, binding on a coated surface is turned into a signal by an enzyme label.
Assay [2] has as its target T1, mouse VEGF-A (mouse) (UniProt Q00731).
T1 sequence (looked up): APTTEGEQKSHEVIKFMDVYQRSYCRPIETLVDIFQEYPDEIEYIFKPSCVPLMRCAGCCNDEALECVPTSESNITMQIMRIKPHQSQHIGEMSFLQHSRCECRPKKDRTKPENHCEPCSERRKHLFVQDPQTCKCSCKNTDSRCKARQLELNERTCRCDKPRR
The experiment in a line: ELISA, VHH-Fc expression supernatant.

B1: Strain #6 VHH (tested as VHH-Fc) (Fc fusion, not shown: a dimerising Fc or GST)
chain: QVQLQESGGGLVQPGGSLRLSCAASGFTFSTSTMSWYRQAPGKERELVAFITSAGATTNYADSVKDRFTMSRDNDKNTVYLQMNVLKPEDTAMYYCRALVTLWNVYWGQGTQVTVSS
As to B1, the binding result in assay [1] and in assay [2] was “binds” in each case.
